This is an account of results in publication PMC11599027.

Amino acid sequences for entries named in this document (tags omitted). Residues count along the entry.
UniProt P30533, residues 35-357: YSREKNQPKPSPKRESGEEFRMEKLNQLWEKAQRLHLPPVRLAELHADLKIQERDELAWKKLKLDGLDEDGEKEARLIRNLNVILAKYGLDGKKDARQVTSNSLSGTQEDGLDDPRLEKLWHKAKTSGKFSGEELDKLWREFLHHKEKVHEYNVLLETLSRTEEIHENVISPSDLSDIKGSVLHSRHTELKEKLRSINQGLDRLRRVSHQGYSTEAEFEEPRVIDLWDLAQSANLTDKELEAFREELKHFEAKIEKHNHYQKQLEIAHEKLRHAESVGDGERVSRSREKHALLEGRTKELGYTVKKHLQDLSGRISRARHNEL
UniProt Q07954, residues 20-4419: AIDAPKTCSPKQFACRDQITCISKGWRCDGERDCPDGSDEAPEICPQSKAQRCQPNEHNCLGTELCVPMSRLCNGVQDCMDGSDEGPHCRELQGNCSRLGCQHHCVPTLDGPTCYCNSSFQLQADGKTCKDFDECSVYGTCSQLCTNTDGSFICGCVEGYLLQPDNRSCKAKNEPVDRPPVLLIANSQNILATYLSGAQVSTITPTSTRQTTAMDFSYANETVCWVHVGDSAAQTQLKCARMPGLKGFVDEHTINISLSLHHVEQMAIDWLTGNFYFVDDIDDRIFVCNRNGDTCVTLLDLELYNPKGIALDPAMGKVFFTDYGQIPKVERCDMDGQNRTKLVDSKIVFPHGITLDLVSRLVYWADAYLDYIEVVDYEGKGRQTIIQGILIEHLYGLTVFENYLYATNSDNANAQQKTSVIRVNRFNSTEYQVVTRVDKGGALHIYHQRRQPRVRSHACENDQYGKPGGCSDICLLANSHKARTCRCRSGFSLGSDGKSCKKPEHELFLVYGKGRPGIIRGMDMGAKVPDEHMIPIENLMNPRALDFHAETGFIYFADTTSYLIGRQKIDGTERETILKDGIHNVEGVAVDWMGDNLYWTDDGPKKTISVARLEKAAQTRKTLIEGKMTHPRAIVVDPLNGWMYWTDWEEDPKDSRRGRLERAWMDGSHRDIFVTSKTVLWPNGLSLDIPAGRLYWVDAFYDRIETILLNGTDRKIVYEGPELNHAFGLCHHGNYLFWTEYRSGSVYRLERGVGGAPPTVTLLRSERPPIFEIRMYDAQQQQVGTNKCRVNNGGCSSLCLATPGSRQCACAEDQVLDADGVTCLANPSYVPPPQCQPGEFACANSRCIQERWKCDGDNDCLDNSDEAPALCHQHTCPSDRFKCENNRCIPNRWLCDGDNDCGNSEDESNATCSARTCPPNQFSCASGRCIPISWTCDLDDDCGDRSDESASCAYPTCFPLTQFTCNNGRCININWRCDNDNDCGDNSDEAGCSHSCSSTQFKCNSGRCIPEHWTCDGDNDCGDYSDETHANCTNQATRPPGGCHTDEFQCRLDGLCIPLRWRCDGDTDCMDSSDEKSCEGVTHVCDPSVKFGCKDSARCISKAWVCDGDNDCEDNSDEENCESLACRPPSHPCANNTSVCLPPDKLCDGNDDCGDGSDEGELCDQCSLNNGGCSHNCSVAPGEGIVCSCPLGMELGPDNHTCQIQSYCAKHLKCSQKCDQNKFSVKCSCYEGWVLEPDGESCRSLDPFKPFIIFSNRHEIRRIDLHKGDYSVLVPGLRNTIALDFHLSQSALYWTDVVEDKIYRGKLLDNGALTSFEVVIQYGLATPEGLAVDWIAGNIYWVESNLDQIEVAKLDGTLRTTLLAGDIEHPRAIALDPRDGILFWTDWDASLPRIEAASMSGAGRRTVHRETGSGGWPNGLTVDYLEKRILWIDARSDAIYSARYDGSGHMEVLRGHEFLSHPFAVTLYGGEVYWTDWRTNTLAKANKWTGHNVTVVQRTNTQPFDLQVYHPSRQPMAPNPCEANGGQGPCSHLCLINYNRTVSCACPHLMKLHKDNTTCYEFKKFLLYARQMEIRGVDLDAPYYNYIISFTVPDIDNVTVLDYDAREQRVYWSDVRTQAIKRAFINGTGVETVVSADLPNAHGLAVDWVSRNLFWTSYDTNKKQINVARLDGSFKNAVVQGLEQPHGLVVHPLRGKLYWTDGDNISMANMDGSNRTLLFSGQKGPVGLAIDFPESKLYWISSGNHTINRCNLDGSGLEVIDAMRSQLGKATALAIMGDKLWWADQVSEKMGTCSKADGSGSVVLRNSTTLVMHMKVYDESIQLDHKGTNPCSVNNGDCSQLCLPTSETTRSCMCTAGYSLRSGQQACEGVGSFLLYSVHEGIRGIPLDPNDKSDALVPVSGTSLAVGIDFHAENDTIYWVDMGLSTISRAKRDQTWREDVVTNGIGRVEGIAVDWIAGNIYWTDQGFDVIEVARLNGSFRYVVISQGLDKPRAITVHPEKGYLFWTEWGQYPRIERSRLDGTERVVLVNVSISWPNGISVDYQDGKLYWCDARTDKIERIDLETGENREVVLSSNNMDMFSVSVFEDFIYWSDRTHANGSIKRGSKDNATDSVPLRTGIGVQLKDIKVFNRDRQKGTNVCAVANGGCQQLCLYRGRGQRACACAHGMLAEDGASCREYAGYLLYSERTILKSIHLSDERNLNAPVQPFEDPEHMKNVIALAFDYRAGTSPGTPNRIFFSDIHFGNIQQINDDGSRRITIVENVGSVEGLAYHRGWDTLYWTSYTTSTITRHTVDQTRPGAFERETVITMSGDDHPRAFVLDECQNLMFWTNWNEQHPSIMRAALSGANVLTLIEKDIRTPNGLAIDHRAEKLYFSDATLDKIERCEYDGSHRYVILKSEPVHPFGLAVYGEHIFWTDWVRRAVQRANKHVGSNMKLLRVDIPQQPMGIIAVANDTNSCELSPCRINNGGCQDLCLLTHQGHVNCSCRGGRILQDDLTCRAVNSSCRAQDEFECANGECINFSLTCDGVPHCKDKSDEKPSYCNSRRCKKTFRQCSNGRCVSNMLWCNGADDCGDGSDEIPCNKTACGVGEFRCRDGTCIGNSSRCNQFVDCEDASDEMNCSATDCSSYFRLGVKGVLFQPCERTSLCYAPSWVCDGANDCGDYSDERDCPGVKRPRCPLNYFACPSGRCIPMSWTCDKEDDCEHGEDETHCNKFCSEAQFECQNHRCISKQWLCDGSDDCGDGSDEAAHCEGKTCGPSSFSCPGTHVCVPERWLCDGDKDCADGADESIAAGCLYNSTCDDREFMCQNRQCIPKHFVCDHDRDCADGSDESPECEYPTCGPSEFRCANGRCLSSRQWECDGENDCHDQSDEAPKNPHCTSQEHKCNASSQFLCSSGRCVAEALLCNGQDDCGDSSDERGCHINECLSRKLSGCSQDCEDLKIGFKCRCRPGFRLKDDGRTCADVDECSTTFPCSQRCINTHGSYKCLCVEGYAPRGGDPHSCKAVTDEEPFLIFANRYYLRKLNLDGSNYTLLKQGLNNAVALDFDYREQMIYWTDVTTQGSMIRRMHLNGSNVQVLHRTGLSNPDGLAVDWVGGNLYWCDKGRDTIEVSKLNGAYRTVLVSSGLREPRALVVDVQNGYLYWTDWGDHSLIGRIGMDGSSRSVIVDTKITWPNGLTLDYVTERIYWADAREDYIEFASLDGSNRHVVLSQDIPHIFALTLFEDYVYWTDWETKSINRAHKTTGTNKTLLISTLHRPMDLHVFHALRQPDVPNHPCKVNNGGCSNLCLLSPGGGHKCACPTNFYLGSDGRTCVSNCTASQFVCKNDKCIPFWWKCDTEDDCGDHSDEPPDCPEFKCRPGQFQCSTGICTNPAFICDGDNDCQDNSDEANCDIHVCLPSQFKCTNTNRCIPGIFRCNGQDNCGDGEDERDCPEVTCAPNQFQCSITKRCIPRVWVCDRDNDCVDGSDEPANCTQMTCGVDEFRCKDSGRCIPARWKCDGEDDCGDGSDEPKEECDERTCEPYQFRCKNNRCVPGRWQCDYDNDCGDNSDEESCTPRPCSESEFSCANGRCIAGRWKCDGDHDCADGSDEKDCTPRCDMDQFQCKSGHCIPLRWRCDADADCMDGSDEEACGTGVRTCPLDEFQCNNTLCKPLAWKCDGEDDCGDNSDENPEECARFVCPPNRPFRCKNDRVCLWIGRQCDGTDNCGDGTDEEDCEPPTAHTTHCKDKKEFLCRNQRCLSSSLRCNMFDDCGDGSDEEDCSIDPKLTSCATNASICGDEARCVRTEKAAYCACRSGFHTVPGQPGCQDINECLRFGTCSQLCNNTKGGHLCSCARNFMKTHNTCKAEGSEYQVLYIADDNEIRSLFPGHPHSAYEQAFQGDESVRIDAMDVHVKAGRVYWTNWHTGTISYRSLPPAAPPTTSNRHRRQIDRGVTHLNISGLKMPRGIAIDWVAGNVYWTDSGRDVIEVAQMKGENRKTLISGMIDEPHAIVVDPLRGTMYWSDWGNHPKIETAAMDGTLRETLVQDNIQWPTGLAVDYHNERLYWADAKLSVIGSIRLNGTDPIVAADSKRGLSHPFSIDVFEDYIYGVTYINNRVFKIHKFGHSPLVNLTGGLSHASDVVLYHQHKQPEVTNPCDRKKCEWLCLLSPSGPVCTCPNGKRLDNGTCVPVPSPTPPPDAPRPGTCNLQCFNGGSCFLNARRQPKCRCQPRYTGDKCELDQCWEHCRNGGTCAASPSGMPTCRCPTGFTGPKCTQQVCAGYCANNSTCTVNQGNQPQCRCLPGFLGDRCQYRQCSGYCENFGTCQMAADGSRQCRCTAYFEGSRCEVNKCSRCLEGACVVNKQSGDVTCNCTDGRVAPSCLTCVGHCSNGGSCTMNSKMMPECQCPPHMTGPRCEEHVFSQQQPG

No constants are given. Whether binding was seen depends on the method and setting. Some results given as binding are weak or reduced against the parent protein; the word gives no strength.

The target in assay [1] is recombinant human RAP protein (protein associated with the LRP1 receptor) (human) (UniProt P30533). The assay is described as follows: SPR; both purified. (SPR reads the build-up and loss of mass on a sensor chip optically.)
The target in assay [2] is T1, receptor-activated alpha-2-macroglobulin (human) (UniProt P01023).
T1 sequence: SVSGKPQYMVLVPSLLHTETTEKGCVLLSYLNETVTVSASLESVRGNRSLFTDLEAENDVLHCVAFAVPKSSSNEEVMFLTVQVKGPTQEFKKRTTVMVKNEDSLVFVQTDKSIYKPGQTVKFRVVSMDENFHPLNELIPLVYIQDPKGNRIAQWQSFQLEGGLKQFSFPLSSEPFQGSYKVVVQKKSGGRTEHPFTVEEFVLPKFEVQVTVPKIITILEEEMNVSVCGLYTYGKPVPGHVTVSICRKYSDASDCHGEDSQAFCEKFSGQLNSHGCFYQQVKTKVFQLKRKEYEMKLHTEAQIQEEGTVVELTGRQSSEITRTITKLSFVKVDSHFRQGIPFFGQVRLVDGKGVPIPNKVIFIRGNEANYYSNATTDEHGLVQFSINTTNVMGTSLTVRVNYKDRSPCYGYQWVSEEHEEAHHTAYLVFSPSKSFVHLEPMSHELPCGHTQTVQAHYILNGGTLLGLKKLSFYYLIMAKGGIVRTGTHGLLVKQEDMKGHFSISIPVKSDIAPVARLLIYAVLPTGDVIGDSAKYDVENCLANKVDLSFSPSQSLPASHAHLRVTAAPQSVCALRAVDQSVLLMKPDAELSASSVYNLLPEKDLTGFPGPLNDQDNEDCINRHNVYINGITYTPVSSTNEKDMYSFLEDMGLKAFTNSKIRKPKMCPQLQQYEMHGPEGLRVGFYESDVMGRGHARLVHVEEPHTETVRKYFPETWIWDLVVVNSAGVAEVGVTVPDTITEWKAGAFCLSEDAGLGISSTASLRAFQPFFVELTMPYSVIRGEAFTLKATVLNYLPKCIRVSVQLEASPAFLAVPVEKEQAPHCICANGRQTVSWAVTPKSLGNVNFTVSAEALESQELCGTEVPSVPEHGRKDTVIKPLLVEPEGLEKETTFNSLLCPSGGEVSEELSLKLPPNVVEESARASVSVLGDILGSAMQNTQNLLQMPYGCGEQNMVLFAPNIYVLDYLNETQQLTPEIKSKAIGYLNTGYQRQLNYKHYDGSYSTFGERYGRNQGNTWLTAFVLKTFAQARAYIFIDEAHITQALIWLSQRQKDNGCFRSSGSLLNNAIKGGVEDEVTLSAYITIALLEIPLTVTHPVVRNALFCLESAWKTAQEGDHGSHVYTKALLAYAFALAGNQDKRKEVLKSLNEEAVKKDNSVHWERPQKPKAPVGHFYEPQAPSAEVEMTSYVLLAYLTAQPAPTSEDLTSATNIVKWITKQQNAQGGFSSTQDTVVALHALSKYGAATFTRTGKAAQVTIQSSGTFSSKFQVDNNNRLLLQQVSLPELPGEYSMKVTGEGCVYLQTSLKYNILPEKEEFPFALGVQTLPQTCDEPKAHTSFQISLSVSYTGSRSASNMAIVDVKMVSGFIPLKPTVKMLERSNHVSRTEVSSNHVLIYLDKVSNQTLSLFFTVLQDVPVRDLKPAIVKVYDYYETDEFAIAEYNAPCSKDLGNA
Kind of assay: affinity chromatography; only the target purified.

As for “LRP1 ectodomain (sLRP1) purified from human plasma (from UniProt Q07954-1 20-4419) (receptor)”, the binding entry in assay [1] and in assay [2] was “binds” each time.
